From patent US20230331827A1, “POTASSIUM CHANNEL INHIBITORS” (priority 2017, published 2023)
Like-named read-outs stand apart in the source and are kept apart here. Some results were stated once for a whole list of compounds, not compound by compound.

Sequences of proteins named here, by UniProt entry; tags and fusion partners are left off.
UniProt P22001, whole entry: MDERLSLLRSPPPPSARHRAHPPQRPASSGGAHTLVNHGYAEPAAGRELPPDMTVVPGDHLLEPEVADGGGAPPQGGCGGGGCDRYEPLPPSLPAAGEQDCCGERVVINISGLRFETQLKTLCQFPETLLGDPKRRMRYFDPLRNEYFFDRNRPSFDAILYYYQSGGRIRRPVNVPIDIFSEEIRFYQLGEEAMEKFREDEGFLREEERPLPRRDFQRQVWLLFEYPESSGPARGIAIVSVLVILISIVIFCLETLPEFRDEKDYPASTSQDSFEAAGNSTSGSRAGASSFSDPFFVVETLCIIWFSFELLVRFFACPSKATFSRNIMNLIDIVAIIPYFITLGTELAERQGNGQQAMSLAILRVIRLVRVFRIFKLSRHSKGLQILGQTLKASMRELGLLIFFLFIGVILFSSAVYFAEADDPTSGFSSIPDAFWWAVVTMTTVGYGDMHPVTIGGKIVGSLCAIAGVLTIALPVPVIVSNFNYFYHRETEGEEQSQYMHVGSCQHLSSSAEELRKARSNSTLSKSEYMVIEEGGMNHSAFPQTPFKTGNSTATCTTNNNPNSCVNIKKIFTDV

What was measured:
human Kv1.3 (huKv1.3) = biological target: T1, human Kv1.3 (huKv1.3) (Homo sapiens, UniProt P22001); test: QPatch automated patch-clamp, CHO cells stably expressing human Kv1.3 (Examples 19-21); assay type: cell-based; settings: read-out: IC50 extrapolated
T1 construct: host or cells: CHO
Protocol: The effect of these KnotBodies on cells expressing human Kv1.3 (huKv1.3) channel was assessed using the QPatch automated patch-clamp platform (Sophion, Ballerup, Denmark). For the testing of Kv1.3 ion channel currents, CHO cells stably expressing human Kv1.3 (GenBank accession number NM_002232.2; cell line catalogue number CT6133, Charles River Discovery, Cleveland, USA) were subjected to a QPatch electrophysiology assay in the presence or absence of the KnotBody fusions or the antibody isotypes (negative controls). Internal and external physiological solutions were freshly prepared prior to the assay. The extracellular solution contained 145 mM NaCl, 4 mM KC1, 2 mM CaC12, 1 mM MgC12, 10 mM HEPES and 10 mM glucose; the pH was adjusted to 7.4 with NaOH; the osmolarity was ~ 305 mOsm/L. The intracellular solution contained: KF (120 mM), KC1 (20 mM), HEPES (10 mM) EGTA (10 mM); the pH was adjusted to 7.2 with KOH; osmolarity was ~ 300 mOsm/L.
(§1) A series of depolarising voltage (channel activating) pulses were used to monitor the channel currents upon adding control (extracellular solution) to define a control baseline of current activity. To these measured control currents four, ascending concentrations of KnotBodies (including KB_A12_ShK and KB_A12_KTX as previously described in Example 8) or parental antibody isotypes (control molecules) were applied to the external bathing solution. KnotBodies KB_A12 and KB_A07 (EETI-II fusions) were used as isotype controls for the testing. […] The elicited, maximum outward current values measured during the activating step for each solution exchange period, averaged (n = 3 - 6 for each concentration applied) and plotted as concentration-response curves (see FIG. 32). From these concentration-response curves IC50 values were calculated.
For the testing of Kv1.1 and Kv1.3, CHO-S expressing huKv1.1 (described above) or CHO cells stably expressing huKv1.3 (Charles River Lab) were analysed using the QPatch electrophysiology assay in the presence or absence of the KnotBody fusions. […]
as §1, with “(including previously described” for “(including”, “KB_A12_KTX” for “KB_A12_KTX as previously”, “solution.” for “solution. KnotBodies KB_A12 and KB_A07 (EETI-II fusions) were used as isotype controls for the testing.”, “33).” for “32).”, “calculated (see Table E20). […]” for “calculated.”

huKv1.3 = biological target: T2, huKv1.3 (Homo sapiens, UniProt P22001); test: QPatch automated whole-cell patch-clamp, CHO cells stably expressing huKv1.3 (Example 8); assay type: cell-based; settings: no significant reduction in measured current; read-out: IC50 extrapolated
T2 construct: host or cells: CHO
Protocol: Knottin Kv 1.3 and ASIC1a blockers expressed in the KnotBody format (see examples 6 and 7) were tested for their ability to inhibit the function of the ion channel targets. The effect of these KnotBodies on cells expressing the human Kv 1.3 (huKv1.3) or human ASIC1a channels was assessed using QPatch automated whole-cell patch-clamp electrophysiology (Sophion).
For the testing of Kv1.3, CHO cells stably expressing huKv1.3 (Charles River Lab) were analysed using the QPatch electrophysiology assay in the presence or absence of the KnotBody fusions or the antibody isotypes (negative) controls. Internal and external physiological solutions were freshly prepared prior to the assay. The extracellular solution contained 145 mM NaCl, 4 mM KCl, 2 mM CaCl2, 1 mM MgCl2, 10 mM HEPES and 10 mM glucose; the pH was adjusted to 7.4 with NaOH; the osmolarity was ~ 305 mOsm/L. The intracellular solution contained: KF (120 mM), KCl (20 mM), HEPES (10 mM) and EGTA (10 mM); the pH was adjusted to 7.2 with KOH; osmolarity was ~ 320 mOsm/L.
A series of depolarising voltage (channel activating) pulses were used to monitor the channel currents upon adding control (extracellular solution) to define a control baseline of current activity. To these measured control currents ascending concentrations of KnotBodies or parental antibody isotypes (control molecules) were applied to the external bathing solution (2.2 µM - 0.5 nM, diluted in the extracellular solution). KnotBodies KB_A12 and KB_A07 (EETI-II fusions) were used as isotype controls for the testing. From a holding voltage of -80 mV a depolarising, activating voltage pulses of +30 or +80 mV were applied for 300 ms, every 5 or 10 seconds. The elicited, maximum outward current values measured during the activating step for each solution exchange period were averaged (n = 3 - 8 for each concentration applied) and plotted as concentration-response curves. […]

[1] = Example 19, no significant reduction in measured current
[2] = Example 20 (Kv1.1 and Kv1.3 tested; channel not given)

B1: KB_A12: EETI-II knottin fused into VL CDR2, D1A12 VH; parental KnotBody, isotype control (antibody, V domains shown)
VH: EVQLVESGGGLVRPGGSLRLSCAASGFTFSSYAMSWVRQAPGKGLEWVSAISGSGGSTYYADSVKGRFTISRDNTKNSLYLQMTSLRADDTAFYYCVKDFGPGYGTGWFDYWGPGTLVTVSS
VL: QSVLTQPPSVSEAPRQRVTITCSGSSSNIGNNAVNWYQQLPGKAPKLLIYAAGRCPRILMRCKQDSDCLAGCVCGPNGFCGANSGVSDRFSAAKSGTSASLAINGLRSEDEADYYCAAWDDSLNGYVFGTGTKLTVLGQP
**Q.** How did the IC50 (human Kv1.3 (huKv1.3); [1]) turn out when B1 was run?
**A.** > 10 µM

**Q.** And the IC50 (human Kv1.3 (huKv1.3); [2])?
**A.** > 10 µM

**Q.** What about the IC50 (huKv1.3) of the same molecule?
**A.** > 10 µM

B2: KB_A07: EETI-II knottin fused into VL CDR2, D1A12 VH; parental KnotBody, isotype control (antibody, V domains shown)
VH: B1 VH
VL: DIQMTQSPSSLSASVGDRVTITCRASQSISSYLNWYQQKPGKAPKLLIYAAGVCPRILMRCKQDSDCLAGCVCGPNGFCGSRSGVPSRFSGSGSGTDFTLTISSLQPEDFATYYCQQGASPPYTFGQGTKVEIKRT
**Q.** Which IC50 (human Kv1.3 (huKv1.3); [1]) does the source give for B2 here?
**A.** > 10 µM

**Q.** And the IC50 (human Kv1.3 (huKv1.3); [2])?
**A.** > 10 µM

**Q.** What about the IC50 (huKv1.3) of the same molecule?
**A.** > 10 µM

B3: KB_A12_KTX: kaliotoxin in VL CDR2 of KB_A12, IgG1 (antibody)
VH: B1 VH
VL: QSVLTQPPSVSEAPRQRVTITCSGSSSNIGNNAVNWYQQLPGKAPKLLIYAAGRGVEINVKCSGSPQCLKPCKDAGMRFGKCMNRKCHCTPKANSGVSDRFSAAKSGTSASLAINGLRSEDEADYYCAAWDDSLNGYVFGTGTKLTVLGQP
**Q.** B3 was tested. Which IC50 (huKv1.3) did it give?
**A.** > 10 µM
